Results as given in the supplement of paper PMC10849652.
The other results are listed elsewhere or left out.

The chains behind the UniProt entries cited, without tags or fusion partners. Where a name states a change or a piece, a line headed by the entry shows the natural chain unless it says otherwise.
UniProt Q2KHR2: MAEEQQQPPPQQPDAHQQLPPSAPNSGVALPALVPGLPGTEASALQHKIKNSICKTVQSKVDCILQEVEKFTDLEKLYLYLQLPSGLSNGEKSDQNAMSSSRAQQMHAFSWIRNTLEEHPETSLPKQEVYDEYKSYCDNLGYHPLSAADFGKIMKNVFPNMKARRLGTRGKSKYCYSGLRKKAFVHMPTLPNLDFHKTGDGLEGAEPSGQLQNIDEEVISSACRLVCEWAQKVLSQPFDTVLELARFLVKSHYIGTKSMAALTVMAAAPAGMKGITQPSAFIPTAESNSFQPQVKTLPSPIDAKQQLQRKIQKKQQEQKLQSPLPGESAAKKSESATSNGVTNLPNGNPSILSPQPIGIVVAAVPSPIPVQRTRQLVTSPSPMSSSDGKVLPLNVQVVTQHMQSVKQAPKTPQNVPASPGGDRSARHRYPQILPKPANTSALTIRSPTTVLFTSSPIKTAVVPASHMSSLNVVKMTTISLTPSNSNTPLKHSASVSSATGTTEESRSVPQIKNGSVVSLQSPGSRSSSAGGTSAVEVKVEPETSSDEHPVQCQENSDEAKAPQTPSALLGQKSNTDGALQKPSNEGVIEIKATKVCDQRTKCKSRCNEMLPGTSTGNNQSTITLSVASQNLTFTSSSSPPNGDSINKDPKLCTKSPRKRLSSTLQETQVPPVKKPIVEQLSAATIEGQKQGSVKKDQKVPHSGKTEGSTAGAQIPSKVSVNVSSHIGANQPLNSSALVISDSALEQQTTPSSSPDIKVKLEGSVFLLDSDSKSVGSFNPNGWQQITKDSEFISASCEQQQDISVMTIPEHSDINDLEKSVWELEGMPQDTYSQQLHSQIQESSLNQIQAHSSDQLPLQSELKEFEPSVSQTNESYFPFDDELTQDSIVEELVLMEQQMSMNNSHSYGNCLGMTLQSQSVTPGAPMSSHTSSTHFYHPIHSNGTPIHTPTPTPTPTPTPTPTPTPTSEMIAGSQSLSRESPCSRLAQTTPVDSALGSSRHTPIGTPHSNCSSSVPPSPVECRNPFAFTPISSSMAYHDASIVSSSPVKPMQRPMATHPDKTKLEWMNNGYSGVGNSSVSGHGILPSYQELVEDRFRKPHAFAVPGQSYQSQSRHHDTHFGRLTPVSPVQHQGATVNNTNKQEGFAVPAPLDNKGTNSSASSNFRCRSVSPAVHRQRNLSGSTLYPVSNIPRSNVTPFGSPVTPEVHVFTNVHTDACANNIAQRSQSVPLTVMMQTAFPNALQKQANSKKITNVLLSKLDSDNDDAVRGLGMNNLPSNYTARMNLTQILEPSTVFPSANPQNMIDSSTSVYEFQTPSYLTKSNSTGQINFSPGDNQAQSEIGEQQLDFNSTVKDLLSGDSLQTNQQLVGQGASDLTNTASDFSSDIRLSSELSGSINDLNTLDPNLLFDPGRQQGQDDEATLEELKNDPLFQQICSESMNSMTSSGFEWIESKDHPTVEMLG
UniProt Q9H4X1: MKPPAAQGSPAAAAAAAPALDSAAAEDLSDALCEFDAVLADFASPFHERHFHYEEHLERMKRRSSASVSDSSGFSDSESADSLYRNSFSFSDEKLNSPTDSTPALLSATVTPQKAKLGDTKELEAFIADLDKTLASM
UniProt Q9Y256: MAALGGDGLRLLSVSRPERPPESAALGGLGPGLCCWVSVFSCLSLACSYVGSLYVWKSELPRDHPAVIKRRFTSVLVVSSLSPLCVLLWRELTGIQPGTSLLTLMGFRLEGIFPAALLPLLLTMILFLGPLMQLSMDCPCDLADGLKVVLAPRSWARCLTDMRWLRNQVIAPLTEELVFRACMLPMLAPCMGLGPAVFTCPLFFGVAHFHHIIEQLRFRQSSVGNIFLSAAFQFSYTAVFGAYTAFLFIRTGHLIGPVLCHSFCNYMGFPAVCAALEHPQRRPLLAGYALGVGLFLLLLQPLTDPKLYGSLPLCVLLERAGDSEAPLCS
UniProt Q9UBZ9: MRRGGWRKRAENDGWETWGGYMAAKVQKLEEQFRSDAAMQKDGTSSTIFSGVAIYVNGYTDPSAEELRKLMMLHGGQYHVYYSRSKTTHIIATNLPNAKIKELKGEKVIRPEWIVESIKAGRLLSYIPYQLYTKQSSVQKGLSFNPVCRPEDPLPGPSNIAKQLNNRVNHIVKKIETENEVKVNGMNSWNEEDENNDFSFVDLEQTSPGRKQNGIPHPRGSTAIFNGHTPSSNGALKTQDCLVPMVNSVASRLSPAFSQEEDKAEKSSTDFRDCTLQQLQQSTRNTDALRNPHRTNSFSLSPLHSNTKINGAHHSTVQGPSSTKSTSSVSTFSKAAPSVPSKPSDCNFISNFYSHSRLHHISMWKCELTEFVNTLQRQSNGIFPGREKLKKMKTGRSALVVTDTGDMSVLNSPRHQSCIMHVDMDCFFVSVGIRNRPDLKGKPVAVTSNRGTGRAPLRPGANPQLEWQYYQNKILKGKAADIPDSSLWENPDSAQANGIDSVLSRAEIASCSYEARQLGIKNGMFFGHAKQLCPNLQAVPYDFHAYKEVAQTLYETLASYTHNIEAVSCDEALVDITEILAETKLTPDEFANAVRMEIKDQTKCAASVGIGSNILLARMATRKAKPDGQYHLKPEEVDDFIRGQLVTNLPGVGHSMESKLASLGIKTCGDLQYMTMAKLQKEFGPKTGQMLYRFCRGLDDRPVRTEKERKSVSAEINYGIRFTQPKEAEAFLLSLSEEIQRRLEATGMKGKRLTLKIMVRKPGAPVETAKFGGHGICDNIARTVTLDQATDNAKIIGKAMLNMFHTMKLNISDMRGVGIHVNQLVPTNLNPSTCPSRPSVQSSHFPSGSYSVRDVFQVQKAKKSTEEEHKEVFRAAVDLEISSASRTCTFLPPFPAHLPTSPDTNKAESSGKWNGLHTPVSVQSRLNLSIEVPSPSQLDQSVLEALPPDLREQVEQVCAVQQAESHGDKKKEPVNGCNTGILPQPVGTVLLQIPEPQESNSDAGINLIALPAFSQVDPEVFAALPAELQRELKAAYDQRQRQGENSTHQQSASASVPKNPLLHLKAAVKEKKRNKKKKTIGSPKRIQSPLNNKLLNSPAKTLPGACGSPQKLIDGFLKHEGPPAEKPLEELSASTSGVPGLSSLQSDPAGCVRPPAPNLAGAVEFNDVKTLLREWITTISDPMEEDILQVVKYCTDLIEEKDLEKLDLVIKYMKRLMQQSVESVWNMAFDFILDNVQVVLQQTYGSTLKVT
UniProt Q9NW13: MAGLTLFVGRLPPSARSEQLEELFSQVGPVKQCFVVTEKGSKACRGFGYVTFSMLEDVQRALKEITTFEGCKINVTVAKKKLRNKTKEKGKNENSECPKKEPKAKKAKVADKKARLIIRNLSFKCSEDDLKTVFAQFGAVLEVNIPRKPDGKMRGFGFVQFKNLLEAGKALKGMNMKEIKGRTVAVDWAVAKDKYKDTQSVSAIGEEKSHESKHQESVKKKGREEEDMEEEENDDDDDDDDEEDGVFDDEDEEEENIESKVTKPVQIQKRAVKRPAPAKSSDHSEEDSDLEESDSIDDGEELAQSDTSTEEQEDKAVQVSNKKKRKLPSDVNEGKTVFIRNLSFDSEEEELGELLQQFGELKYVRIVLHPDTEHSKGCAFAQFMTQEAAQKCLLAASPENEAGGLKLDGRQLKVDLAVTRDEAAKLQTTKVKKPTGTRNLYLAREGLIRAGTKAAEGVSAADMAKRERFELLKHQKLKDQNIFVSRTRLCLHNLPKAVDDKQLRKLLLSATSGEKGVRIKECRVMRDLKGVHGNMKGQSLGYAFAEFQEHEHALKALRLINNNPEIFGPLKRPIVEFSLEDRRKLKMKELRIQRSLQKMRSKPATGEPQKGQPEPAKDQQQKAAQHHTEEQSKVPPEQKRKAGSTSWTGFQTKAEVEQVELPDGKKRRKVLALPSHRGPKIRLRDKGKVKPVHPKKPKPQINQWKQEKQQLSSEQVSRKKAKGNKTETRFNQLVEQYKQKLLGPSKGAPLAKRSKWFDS
UniProt Q8IZV5: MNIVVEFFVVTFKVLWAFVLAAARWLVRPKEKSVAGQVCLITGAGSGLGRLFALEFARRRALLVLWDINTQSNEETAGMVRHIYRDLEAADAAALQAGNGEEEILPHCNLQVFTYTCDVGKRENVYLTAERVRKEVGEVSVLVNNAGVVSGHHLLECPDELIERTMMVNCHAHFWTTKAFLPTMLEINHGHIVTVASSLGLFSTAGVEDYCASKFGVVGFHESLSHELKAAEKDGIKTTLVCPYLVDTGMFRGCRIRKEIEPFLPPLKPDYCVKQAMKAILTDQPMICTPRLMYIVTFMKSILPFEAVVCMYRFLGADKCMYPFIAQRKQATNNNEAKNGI
UniProt Q06330: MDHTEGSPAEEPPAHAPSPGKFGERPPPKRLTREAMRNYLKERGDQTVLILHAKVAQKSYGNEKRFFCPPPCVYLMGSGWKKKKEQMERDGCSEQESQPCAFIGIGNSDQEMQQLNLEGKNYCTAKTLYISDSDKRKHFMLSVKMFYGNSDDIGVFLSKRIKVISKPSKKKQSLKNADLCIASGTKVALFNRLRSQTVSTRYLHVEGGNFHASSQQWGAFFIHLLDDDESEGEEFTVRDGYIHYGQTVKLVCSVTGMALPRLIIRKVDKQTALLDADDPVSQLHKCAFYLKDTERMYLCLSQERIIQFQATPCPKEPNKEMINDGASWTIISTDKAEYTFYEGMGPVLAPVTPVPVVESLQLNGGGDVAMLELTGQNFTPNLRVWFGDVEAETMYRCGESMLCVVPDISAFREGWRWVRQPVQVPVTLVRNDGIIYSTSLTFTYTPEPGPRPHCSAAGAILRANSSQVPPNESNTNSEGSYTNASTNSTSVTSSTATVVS
UniProt O94761: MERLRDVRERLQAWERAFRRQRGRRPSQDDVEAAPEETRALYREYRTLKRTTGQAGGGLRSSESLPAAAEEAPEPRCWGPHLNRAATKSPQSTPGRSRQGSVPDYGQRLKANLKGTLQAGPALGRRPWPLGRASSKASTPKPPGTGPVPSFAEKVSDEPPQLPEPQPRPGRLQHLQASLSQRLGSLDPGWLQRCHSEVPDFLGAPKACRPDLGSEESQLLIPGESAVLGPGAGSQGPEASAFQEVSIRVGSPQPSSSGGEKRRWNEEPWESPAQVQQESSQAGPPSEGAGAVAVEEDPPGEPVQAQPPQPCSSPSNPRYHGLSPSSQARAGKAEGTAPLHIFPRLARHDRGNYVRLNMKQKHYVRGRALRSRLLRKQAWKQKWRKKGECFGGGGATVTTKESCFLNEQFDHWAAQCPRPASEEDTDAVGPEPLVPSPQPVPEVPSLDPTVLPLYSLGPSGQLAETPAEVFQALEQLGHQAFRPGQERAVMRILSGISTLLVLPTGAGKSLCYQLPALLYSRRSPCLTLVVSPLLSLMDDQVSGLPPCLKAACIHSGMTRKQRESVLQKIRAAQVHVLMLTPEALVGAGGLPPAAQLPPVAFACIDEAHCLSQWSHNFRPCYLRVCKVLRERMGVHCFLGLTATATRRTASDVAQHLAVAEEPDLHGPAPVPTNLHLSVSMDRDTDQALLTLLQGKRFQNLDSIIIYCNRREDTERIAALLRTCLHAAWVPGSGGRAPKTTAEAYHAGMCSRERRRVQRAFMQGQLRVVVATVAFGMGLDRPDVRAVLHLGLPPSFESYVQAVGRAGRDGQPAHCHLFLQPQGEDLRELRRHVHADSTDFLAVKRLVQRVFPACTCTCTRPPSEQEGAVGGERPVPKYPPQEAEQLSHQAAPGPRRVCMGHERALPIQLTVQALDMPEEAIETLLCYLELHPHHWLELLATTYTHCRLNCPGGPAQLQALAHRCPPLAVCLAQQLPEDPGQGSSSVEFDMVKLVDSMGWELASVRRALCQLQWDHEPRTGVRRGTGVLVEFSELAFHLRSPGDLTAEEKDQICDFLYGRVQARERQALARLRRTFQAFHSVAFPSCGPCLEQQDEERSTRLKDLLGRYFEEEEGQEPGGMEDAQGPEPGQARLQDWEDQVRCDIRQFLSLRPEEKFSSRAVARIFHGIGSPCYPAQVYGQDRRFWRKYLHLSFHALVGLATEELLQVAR
UniProt O43665: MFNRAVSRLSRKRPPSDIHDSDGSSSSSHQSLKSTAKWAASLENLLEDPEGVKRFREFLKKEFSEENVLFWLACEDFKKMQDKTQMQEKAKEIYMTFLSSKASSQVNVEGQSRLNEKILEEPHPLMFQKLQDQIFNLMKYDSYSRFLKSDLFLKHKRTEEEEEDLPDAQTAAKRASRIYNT
UniProt P40938, whole entry, looked up: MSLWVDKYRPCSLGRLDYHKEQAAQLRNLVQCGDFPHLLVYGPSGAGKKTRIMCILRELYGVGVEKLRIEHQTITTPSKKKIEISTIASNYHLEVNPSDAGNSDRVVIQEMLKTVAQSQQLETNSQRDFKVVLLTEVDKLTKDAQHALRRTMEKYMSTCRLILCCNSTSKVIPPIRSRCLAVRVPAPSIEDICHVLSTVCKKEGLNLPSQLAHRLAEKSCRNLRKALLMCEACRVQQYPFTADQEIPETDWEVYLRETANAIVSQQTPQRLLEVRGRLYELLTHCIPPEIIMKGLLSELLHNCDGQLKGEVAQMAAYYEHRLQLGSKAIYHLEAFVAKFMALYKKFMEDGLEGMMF

Key:
Assay in all cases: log2 fold change, soluble protein after heating vs DMSO (PISA); higher = thermal stabilisation; K562 lysate, 10 uM; active = over 0.2 and 3.5 SD of the protein, either way, in both replicates (recomputed)
[1] = compound: NCC(=O)Nc1ccc(-n2nc(C(F)(F)F)cc2-c2ccc3c(ccc4ccccc43)c2)cc1
In short: (§1)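 Values give the log-two fold change in thermal stability against solvent controls, from duplicates. Crude K562 extract at 1 mg/mL protein, made by dounce homogenisation in PBS pH 7.4 with 1 mM MgCl2, was treated with 10 μM compound for 30 min. After 3 min heating across 48°C-58°C, aliquots were pooled, adjusted to 0.5% NP-40 at 4°C and centrifuged at 21,000xg for 90 min. The supernatant was measured by TMTpro 16plex LC-MS/MS with channel sums equalised.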

vorinostat = compound: O=C(CCCCCCC(=O)Nc1ccccc1)NO [vorinostat]
In short: as §1

silmitasertib = compound: O=C(O)c1ccc2c(c1)nc(Nc1cccc(Cl)c1)c1ccncc12 [silmitasertib]
In short: as §1

[2] = compound: O=C1NC(=O)C(c2cnc3ccccn23)=C1c1cn2c3c(cc(F)cc13)CN(C(=O)N1CCCCC1)CC2
In short: as §1

entospletinib = compound: c1cn2cc(-c3ccc4cn[nH]c4c3)nc(Nc3ccc(N4CCOCC4)cc3)c2n1 [entospletinib]
In short: as §1

Measured: log2 fold change

RBBP9 (UniProt O75884)
inactive: [1] 0.011 | vorinostat 0.064 | silmitasertib -0.068 | [2] 0.05

RBM47
inactive: [1] -0.088 | vorinostat -0.33 | silmitasertib -0.089

RB1CC1 (UniProt Q8TDY2)
inactive: [1] 0.032 | vorinostat -0.167 | silmitasertib 0.016 | [2] 0.005 | entospletinib 0.009

REEP3 (UniProt Q6NUK4)
inactive: [1] 0.02 | vorinostat 0.178 | silmitasertib 0.028 | [2] 0.01

RAPGEF5, A0A590UJR0
inactive: [1] 0.106 | vorinostat 0.045 | silmitasertib -0.035 | [2] 0.043 | entospletinib -0.067

RBMX2 (UniProt Q9Y388)
inactive: [1] -0.009 | vorinostat 0.017 | silmitasertib 0.088

REEP6 (UniProt Q96HR9)
inactive: [1] -0.031 | vorinostat 0.068 | silmitasertib -0.083 | [2] -0.028 | entospletinib -0.059

RFX7 (UniProt Q2KHR2)
inactive: [1] -0.053 | vorinostat -0.046 | silmitasertib 0.045 | [2] 0.016 | entospletinib -0.057

RBM26 isoform 2 (UniProt Q5T8P6)
inactive: [1] -0.01 | vorinostat -0.212 | silmitasertib -0.013 | [2] -0.001 | entospletinib 0.007

Quoted at random: three records from the list.
RBMX2 (UniProt Q9Y388)
inactive: [1] -0.009 | vorinostat 0.017 | silmitasertib 0.088

RAPGEF5, A0A590UJR0
inactive: [1] 0.106 | vorinostat 0.045 | silmitasertib -0.035 | [2] 0.043 | entospletinib -0.067

RFX7 (UniProt Q2KHR2)
inactive: [1] -0.053 | vorinostat -0.046 | silmitasertib 0.045 | [2] 0.016 | entospletinib -0.057

(continued)

RBM22 (UniProt Q9NW64)
inactive: [1] 0.024 | silmitasertib 0 | [2] -0.053 | entospletinib -0.023
active: vorinostat -0.23

REST (UniProt Q13127)
inactive: [1] -0.047 | vorinostat 0.015 | silmitasertib -0.458 | [2] 0.063

RFC5 (UniProt P40937)
active: vorinostat -0.492
inactive: [1] 0.019 | silmitasertib 0.031 | [2] 0.019 | entospletinib 0.014

RCHY1 (UniProt Q96PM5)
inactive: [1] -0.066 | vorinostat -0.008 | silmitasertib 0.025 | [2] -0.006 | entospletinib -0.055

RELA (UniProt Q04206)
inactive: [1] -0.015 | vorinostat -0.186 | silmitasertib -0.002 | [2] -0.004 | entospletinib -0.007

RCN1 (UniProt Q15293)
inactive: [1] -0.006 | vorinostat 0.128 | silmitasertib 0.003 | [2] -0.048 | entospletinib 0.029

REPS1 (UniProt Q96D71)
inactive: [1] -0.017 | vorinostat 0.02 | silmitasertib -0.014 | [2] 0.001 | entospletinib -0.027

RCN3 (UniProt Q96D15)
inactive: [1] -0.038 | vorinostat 0.16 | silmitasertib 0.045 | [2] 0.049 | entospletinib 0.025

RGCC (UniProt Q9H4X1)
inactive: [1] -0.017 | vorinostat 0.401 | silmitasertib 0.243

RBM10 isoform 5 (UniProt P98175)
inactive: [1] 0.039 | vorinostat 0.136 | silmitasertib -0.038 | [2] -0.074 | entospletinib -0.009

RASA1 (UniProt P20936)
inactive: [1] 0.014 | vorinostat -0.092 | silmitasertib 0 | [2] 0.005 | entospletinib 0.011

RCE1 (UniProt Q9Y256)
inactive: [1] -0.208 | vorinostat -0.034 | silmitasertib 0.092 | [2] -0.026 | entospletinib -0.021

REXO4 (UniProt Q9GZR2)
inactive: [1] 0.03 | vorinostat -0.127 | silmitasertib 0.05 | [2] -0.035 | entospletinib 0.067

REV1 (UniProt Q9UBZ9)
inactive: [1] -0.177 | vorinostat -0.02 | silmitasertib -0.04 | [2] -0.108 | entospletinib 0.046

REV3L (UniProt O60673)
inactive: [1] 0.024 | vorinostat -0.135 | silmitasertib -0.037 | [2] 0.064 | entospletinib -0.026

RCOR3 isoform 3 (UniProt Q9P2K3)
inactive: [1] -0.044 | vorinostat -0.206 | silmitasertib -0.002 | [2] -0.01 | entospletinib 0.034

RBL1 (UniProt P28749)
inactive: [1] -0.051 | vorinostat -0.221 | silmitasertib -0.027 | [2] 0.038 | entospletinib -0.092

RARS2 (UniProt Q5T160)
inactive: [1] 0 | vorinostat -0.027 | silmitasertib -0.016 | [2] -0.002 | entospletinib 0.064

RBM25 (UniProt P49756)
inactive: [1] 0.067 | vorinostat -0.041 | silmitasertib 0.009 | [2] -0.018 | entospletinib -0.016

RBM20 (UniProt Q5T481)
inactive: [1] 0.228 | vorinostat -0.007 | silmitasertib -0.033

RBM28 (UniProt Q9NW13)
inactive: [1] 0.042 | vorinostat 0.019 | silmitasertib 0.089 | [2] 0.013 | entospletinib 0.024

RAPGEF6 isoform 4 (UniProt Q8TEU7)
inactive: [1] -0.012 | vorinostat -0.195 | silmitasertib 0.011 | [2] 0 | entospletinib -0.035

RCCD1 (UniProt A6NED2)
inactive: [1] -0.06 | vorinostat -0.043 | silmitasertib 0.038 | [2] 0.002 | entospletinib -0.055

RECQL5 (UniProt O94762)
active: vorinostat -0.307
inactive: [1] -0.063 | silmitasertib -0.094 | [2] 0.03 | entospletinib 0.024

RBSN (UniProt Q9H1K0)
inactive: [1] 0.039 | vorinostat 0.035 | silmitasertib -0.032 | [2] -0.026 | entospletinib -0.088

RFFL (UniProt Q8WZ73)
inactive: [1] 0.015 | vorinostat 0.103 | silmitasertib -0.104 | [2] 0.005 | entospletinib 0.064

RBM12 (UniProt Q9NTZ6)
inactive: [1] -0.01 | vorinostat 0.02 | silmitasertib -0.012 | [2] 0.014 | entospletinib -0.024

RBBP6 (UniProt Q7Z6E9)
inactive: [1] -0.016 | vorinostat -0.088 | silmitasertib -0.039 | [2] 0.02 | entospletinib -0.011

RCC1 isoform 2 (UniProt P18754)
inactive: [1] 0.009 | silmitasertib 0.034 | [2] 0.051 | entospletinib -0.014
active: vorinostat -0.381

RDH10 (UniProt Q8IZV5)
inactive: [1] -0.038 | vorinostat -0.007 | silmitasertib 0.006 | [2] -0.042 | entospletinib 0.162

RBPJ (UniProt Q06330)
inactive: [1] 0.035 | vorinostat 0.071 | silmitasertib -0.029 | [2] 0.019 | entospletinib 0.013

RBM27 (UniProt Q9P2N5)
inactive: [1] 0.075 | vorinostat -0.126 | silmitasertib -0.066 | [2] -0.054 | entospletinib -0.024

RECQL (UniProt P46063)
inactive: [1] 0.01 | vorinostat -0.074 | silmitasertib 0.002 | [2] -0.023 | entospletinib 0.011

RECQL4 (UniProt O94761)
inactive: [1] -0.003 | vorinostat -0.044 | silmitasertib 0.019 | [2] 0.022 | entospletinib -0.023

REL isoform 2 (UniProt Q04864)
active: vorinostat -0.351
inactive: [1] -0.052 | silmitasertib 0.07 | [2] -0.004 | entospletinib 0.019

RBM8A (UniProt Q9Y5S9)
inactive: [1] -0.113 | vorinostat 0.103 | silmitasertib 0.042 | [2] -0.046 | entospletinib -0.019

RBM33 (UniProt Q96EV2)
inactive: [1] -0.002 | vorinostat -0.207 | silmitasertib -0.027 | [2] -0.007 | entospletinib -0.025

RBM39 (UniProt Q14498)
inactive: [1] 0.046 | vorinostat 0 | silmitasertib -0.076 | [2] -0.009 | entospletinib -0.047

RBBP7 (UniProt Q16576)
inactive: [1] -0.005 | vorinostat -0.091 | silmitasertib 0.033 | [2] -0.167 | entospletinib 0

RBM17 (UniProt Q96I25)
inactive: [1] 0.011 | vorinostat -0.185 | silmitasertib -0.019 | [2] 0.011 | entospletinib 0.009

RGS10 (UniProt O43665)
inactive: [1] 0.023 | vorinostat 0.151 | silmitasertib -0.058 | [2] 0.004 | entospletinib 0.007

RFC3 (UniProt P40938)
active: vorinostat -0.365
inactive: [1] -0.01 | silmitasertib 0.035 | [2] 0.006 | entospletinib 0.018

RELN (UniProt P78509)
inactive: [1] 0.016 | vorinostat 0.088 | silmitasertib -0.049 | [2] 0.006 | entospletinib -0.037

RASA2 (UniProt Q15283)
active: vorinostat -0.275
inactive: [1] -0.007 | silmitasertib 0.021 | [2] -0.006 | entospletinib 0.023

REXO2 (UniProt Q9Y3B8)
inactive: [1] 0.014 | vorinostat 0.01 | silmitasertib -0.006 | [2] -0.011 | entospletinib 0.045

RBM19 (UniProt Q9Y4C8)
inactive: [1] -0.02 | vorinostat 0.116 | silmitasertib 0.014 | [2] 0.083 | entospletinib -0.023
